Laboratory results from paper doi:10.64898/2025.12.28.696746.
No constants are given. Whether binding was seen depends on the method and setting. Some entries that bind do so weakly or less than the wild type.

Amino acid sequences for entries named in this document (tags omitted). A change or cut given only in a name is not applied to a line headed by its entry.
UniProt O74876: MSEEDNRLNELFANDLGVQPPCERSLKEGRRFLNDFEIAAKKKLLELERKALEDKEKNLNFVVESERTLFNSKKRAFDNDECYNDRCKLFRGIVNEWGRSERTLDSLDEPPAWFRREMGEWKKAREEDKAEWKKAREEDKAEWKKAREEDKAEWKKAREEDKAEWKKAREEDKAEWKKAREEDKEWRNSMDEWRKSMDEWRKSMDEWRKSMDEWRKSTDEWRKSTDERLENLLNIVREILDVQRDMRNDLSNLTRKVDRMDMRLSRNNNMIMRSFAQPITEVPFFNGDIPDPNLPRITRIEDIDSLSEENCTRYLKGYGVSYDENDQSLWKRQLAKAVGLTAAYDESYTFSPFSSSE

How the values were obtained:
[1] = target: T1, Bdf1 (S. pombe) (UniProt Q9Y7N0); experiment: two-hybrid; Matchmaker Gold Yeast Two-Hybrid System (Clontech); bait and prey co-expressed, selected on SD/-Leu/-Trp, spotted on SD/-Leu/-Trp/-His/-Ade (HIS3 and ADE2 reporters), 30°C, 2-4 days
T1 sequence: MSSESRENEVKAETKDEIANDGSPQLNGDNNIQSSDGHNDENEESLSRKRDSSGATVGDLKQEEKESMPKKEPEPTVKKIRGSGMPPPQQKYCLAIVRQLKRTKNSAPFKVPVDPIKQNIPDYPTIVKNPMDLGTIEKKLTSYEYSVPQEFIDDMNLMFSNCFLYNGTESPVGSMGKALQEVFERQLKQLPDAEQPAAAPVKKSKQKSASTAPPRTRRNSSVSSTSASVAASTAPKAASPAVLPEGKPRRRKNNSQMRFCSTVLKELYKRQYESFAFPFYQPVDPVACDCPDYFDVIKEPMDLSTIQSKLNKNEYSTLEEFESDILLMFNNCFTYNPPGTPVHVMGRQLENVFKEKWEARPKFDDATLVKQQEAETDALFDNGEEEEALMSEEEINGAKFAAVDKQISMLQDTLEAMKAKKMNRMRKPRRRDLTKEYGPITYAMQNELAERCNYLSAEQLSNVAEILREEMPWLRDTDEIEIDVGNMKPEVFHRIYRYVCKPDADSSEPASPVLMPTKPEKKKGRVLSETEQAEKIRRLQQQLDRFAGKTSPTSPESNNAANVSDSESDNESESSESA

[2] = target: Tdk1 (S. pombe) (UniProt O74876); experiment: as above

| Substance | binding [1] | binding [2] |
| --- | --- | --- |
| C-terminal fragment of Tdk1 (Tdk1C, residues 227–357) (from UniProt O74876 227-357) (domain or fragment) | binds | – |
| Tdk1 (from UniProt O74876 1-357) | – | binds |
